Here are results for 1 molecule from PMC10421354.

The assay deals with T1, NSP2-GFP (nitrile-specific protein 2 tagged with GFP) (Arabidopsis thaliana) (UniProt O49326).
T1 sequence: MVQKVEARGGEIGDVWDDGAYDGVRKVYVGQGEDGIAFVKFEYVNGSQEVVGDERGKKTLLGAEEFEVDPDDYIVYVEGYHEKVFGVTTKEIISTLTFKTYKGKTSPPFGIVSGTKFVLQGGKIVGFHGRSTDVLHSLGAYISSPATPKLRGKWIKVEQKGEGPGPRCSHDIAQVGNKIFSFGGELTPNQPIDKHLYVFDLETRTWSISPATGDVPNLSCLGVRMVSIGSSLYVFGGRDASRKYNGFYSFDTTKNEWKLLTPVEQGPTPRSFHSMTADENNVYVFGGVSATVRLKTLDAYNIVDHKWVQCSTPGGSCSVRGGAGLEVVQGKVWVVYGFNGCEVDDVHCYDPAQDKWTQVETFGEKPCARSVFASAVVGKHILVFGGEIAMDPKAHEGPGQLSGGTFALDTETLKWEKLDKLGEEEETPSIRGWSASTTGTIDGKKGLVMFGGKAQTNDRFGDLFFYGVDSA
As to the kind of experiment: affinity purification with mass spectrometry; IP-MS from NSP2 transgenic Arabidopsis plants tagged with GFP; NSP2-GFP as bait.

These are yes or no findings as the source states them, for the method shown. In cells and extracts the contact can be indirect. These calls come from enrichment with a bait or labelling near it, and not all partners need be listed. Where a sequence is shown, tags or fusion partners need not be part of it.

B1: MPK3 (protein, UniProt Q39023 1-370)
chain: MNTGGGQYTDFPAVETHGGQFISYDIFGSLFEITSKYRPPIIPIGRGAYGIVCSVLDTETNELVAMKKIANAFDNHMDAKRTLREIKLLRHLDHENIIAIRDVVPPPLRRQFSDVYISTELMDTDLHQIIRSNQSLSEEHCQYFLYQLLRGLKYIHSANIIHRDLKPSNLLLNANCDLKICDFGLARPTSENDFMTEYVVTRWYRAPELLLNSSDYTAAIDVWSVGCIFMELMNRKPLFPGKDHVHQMRLLTELLGTPTESDLGFTHNEDAKRYIRQLPNFPRQPLAKLFSHVNPMAIDLVDRMLTFDPNRRITVEQALNHQYLAKLHDPNDEPICQKPFSFEFEQQPLDEEQIKEMIYQEAIALNPTYG
In the case of B1, the binding result is recorded as “binds”.
